Reference: publication PMC11024185

T1: Dbp10 (2xStrep-bdNEDD8-DBP10) (S. cerevisiae) (UniProt Q12389)
T1 sequence: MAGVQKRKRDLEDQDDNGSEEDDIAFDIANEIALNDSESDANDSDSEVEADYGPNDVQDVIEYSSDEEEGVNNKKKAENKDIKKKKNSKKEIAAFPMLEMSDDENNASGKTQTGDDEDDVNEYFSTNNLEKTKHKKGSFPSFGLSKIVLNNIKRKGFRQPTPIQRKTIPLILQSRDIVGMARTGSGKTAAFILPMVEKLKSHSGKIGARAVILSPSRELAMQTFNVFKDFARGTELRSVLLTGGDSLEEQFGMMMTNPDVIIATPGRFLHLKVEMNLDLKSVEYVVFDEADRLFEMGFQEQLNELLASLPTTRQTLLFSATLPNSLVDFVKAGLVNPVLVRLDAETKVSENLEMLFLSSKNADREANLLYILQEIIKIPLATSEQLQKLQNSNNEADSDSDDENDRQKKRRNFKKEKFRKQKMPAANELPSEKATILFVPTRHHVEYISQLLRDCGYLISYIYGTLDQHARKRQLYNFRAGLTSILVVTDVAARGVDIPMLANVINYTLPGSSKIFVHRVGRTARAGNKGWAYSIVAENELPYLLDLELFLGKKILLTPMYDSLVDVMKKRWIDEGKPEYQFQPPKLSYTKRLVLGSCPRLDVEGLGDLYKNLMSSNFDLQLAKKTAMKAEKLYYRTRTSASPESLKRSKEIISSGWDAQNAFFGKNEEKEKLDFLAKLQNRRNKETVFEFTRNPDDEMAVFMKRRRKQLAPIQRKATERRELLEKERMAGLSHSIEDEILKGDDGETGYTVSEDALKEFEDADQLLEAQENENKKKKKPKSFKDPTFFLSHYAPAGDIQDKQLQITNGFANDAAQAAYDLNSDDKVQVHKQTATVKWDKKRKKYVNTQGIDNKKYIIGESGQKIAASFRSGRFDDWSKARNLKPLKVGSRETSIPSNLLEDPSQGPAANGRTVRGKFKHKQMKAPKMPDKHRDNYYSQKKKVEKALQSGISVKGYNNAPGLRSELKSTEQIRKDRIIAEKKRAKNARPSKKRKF

T2: Dbp10 (wild type, overexpressed, N-terminal 3xStrep-sfGFP-bdNEDD-MYC tag) (S. cerevisiae) (UniProt Q12389)
T2 sequence: T1 sequence

T3: Dbp10^R522V (slow-hydrolysis mutant, overexpressed, N-terminal 3xStrep-sfGFP-bdNEDD-MYC tag) (S. cerevisiae) (UniProt Q12389)
T3 sequence: T1 sequence with R522V

B1: Noc2-3xFLAG-3C-2xProteinA (protein, UniProt P39744 1-710)
chain: MGKVSKSTKKFQSKHLKHTLDQRRKEKIQKKRIQGRRGNKTDQEKADAAGTREQQQLKKSAKEEVFKDMSVETFFEKGIEIPKENKKLKKKTTKEQSDEDSSSSEEEEDMGQSMAKLAEKDPEFYKYLEENDKDLLDFAGTNPLDGIDSQDEGEDAERNSNIEEKSEQMELEKEKIELSLKLVRKWKKQLHDSPSLKLLRNIISAFKVAVNLNKEENIEDYKYAITDEKAFHELMFMVLKDVPQAIQKMAPYKIVKGARTLPNGGNVSRVSSIVKSHAGSLLILLNDITNTETAALVLHSVNELMPYLLSYRRILKELIKSIVGVWSTTRELETQIASFAFLINTTKEFKKSMLETTLKTTYSTFIKSCRKTNMRSMPLINFQKNSAAELFGIDEVLGYQVGFEYIRQLAIHLRNTMNATTKKSSKINSAEAYKIVYNWQFCHSLDFWSRVLSFACQPEKENGSESPLRQLIYPLVQVTLGVIRLIPTPQFFPLRFYLIKSLIRLSQNSGVFIPIYPLLSEILTSTAFTKAPKKSPNLAAFDFEHNIKCTQAYLNTKIYQEGLSEQFVDLLGDYFALYCKNIAFPELVTPVIISLRRYIKTSTNVKLNKRLSTVVEKLNQNSTFIQEKRSDVEFGPTNKSEVSRFLNDVAWNKTPLGSYVAVQREVKEEKARLMRESMEEQDKERETEEAKLLNSLESDDDNEDVEMSDA
B2: Brx1 (genomic C-terminal 3xFLAG-3C-2xProteinA tag) (protein, UniProt Q08235 1-291)
chain: MSSIYKALAGKSKDNKSEKKQGNVKQFMNKQRTLLISSRGVNYRHRHLIQDLSGLLPHSRKEPKLDTKKDLQQLNEIAELYNCNNVLFFEARKHQDLYLWLSKPPNGPTIKFYIQNLHTMDELNFTGNCLKGSRPVLSFDQRFESSPHYQLIKELLVHNFGVPPNARKSKPFIDHVMSFSIVDDKIWVRTYEISHSTKNKEEYEDGEEDISLVEIGPRFVMTVILILEGSFGGPKIYENKQYVSPNVVRAQIKQQAAEEAKSRAEAAVERKIKRRENVLAADPLSNDALFK
B3: Rrp15 (protein, UniProt Q06511 1-250)
chain: MGSKHRVDTKDKKRTRKNAEFGREKRNSGNQELSNEPEKDTIMEGDEAEEDEQNSSSDESSKIIDNEQSDAEEDDDEEEEDDDFPRKKKSKNSKHDDGSTGFSAAVNAILSSHLKAYDRKDPIMARNKKVLKQSESEKLEYKAKKALLAEKKKLLGKARKTDIIPIASGEDRSENIRKVLEKETALRKIAQKGAVKLFNAILATQVKTEKEVSENLSEIKNKEEKKELITEVSKEKFLDLVKAAAGSDNE
B4: Noc2 (endogenous) (protein, UniProt P39744 1-710)
chain: B1 chain
B5: Nug1 (protein, UniProt P40010 1-520)
chain: MRVRKRQSRRTSTKLKEGIKKKASAHRKKEKKMAKKDVTWRSRSKKDPGIPSNFPYKAKILEEIEAKKMKDLEERELAKQQRLEARKAAKEQGVDAMDEDMIEDDENGLAALVESAQQAAAEYEGTPSNDADVRDDELDVIDYNIDFYGEDVEGESELEKSRKAYDKIFKSVIDASDVILYVLDARDPESTRSRKVEEAVLQSQGKRLILILNKVDLIPPHVLEQWLNYLKSSFPTIPLRASSGAVNGTSFNRKLSQTTTASALLESLKTYSNNSNLKRSIVVGVIGYPNVGKSSVINALLARRGGQSKACPVGNEAGVTTSLREIKIDNKLKILDSPGICFPSENKKRSKVEHEAELALLNALPAKHIVDPYPAVLMLVKRLAKSDEMTESFKKLYEIPPIPANDADTFTKHFLIHVARKRGRLGKGGIPNLASAGLSVLNDWRDGKILGWVLPNTSAAASQQDKQNLSTINTGTKQAPIAANESTIVSEWSKEFDLDGLFSSLDKAIDASKDQDTMME
B6: Ssf1 (endogenous) (protein, UniProt P38789 1-453)
chain: MAKRRQKKRTHAQLTPEQEQGIPKSMVIRVGQTSLANHSLNQLVKDFRQIMQPHTAIKLKERKSNKLKDFVVMCGPLGVTHLFMFTQSEKTGNVSLKIARTPQGPTVTFQVLDYSLGRDIKKFLKRPKSLNNDDVLNPPLLVLNGFSTSKRSGEDDQDVNVEKVIVSMFQNIFPPLNPARTSLNSIKRVFMINKDRETGEISMRHYFIDIREVEISRNLKRLYKAKNNLSKTVPNLHRKEDISSLILDHDLGAYTSESEIEDDAIVRVVDNQDVKAKHSQSLKSQRTPVEKKDNKEREKETEEEDVEMEEPKPSENLQPTPRKKAIKLTELGPRLTLKLVKIEEGICSGKVLHHEFVQKSSEEIKALEKRHAAKMRLKEQRKKEQEENIAKKKAVKDAKKQRKLERRKARAAEGGEGQGKDDAMSDDESSSSDSEHYGSVPEDLDSDLFSEVE

Target: T1, Dbp10 (2xStrep-bdNEDD8-DBP10) (S. cerevisiae)
Test: affinity purification with mass spectrometry; split-tag purification of pre-60S particles from SPB4-AID yeast without and with auxin (0.5 mM IAA, 45 min): IgG Sepharose on Noc2-2xProteinA, 3C cleavage, then Strep-Tactin on 2xStrep-Dbp10; buffers with 50 µM ADP-BeF3; Coomassie-stained 4-20% SDS-PAGE, bands named by molecular weight, ambiguous bands by mass spectrometry; auxin gave ~10-fold enrichment of the particle

| binding | Binder |
| --- | --- |
| binds | B1 |

Target: T2, Dbp10 (wild type, overexpressed, N-terminal 3xStrep-sfGFP-bdNEDD-MYC tag) (S. cerevisiae)
Test: affinity purification with mass spectrometry; split tags on Brx1 and Dbp10 from yeast lysate after β-estradiol-induced overexpression of DBP10 or dbp10^R522V: IgG Sepharose (Brx1-2xProteinA), 3C protease cleavage, Strep-Tactin (Dbp10), elution with bdNEDD8 protease; Ribo-buffer (50 mM Bis-Tris-Propane HCl pH 8.0, 125 mM NaCl, 25 mM KCl, 10 mM MgCl2, 1 mM TCEP, NP-40); semi-quantitative mass spectrometry of pre-60S particles

| binding | Binder |
| --- | --- |
| binds | B2 |
| binds | B3 |
| binds | B4 |
| binds | B5 |
| binds | B6 |

Target: T3, Dbp10^R522V (slow-hydrolysis mutant, overexpressed, N-terminal 3xStrep-sfGFP-bdNEDD-MYC tag) (S. cerevisiae)
Test: as above

| binding | Binder |
| --- | --- |
| binds | B2 |
| binds | B3 |
| binds | B4 |
| binds | B5 |
| binds | B6 |

Residue numbers refer to the chain shown, from its start. These are yes or no findings as the source states them, for the method shown. In cells and extracts the contact can be indirect. A yes stands for co-enrichment or nearness to the bait. Other partners may have been found. Tags and fused reporters may be left off the sequences shown.
